Results deposited as PubChem BioAssay AID1259254 (NCATS, 2017).
Purpose: 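Gene knock-downs that lead to re-replication, shown by excess G2 DNA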 (primary screen). Cell system: human HCT116 colorectal cancer cells. Reagents: single siRNA against human genes. Timing: 3 days. Measured: 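Nuclei stained with Hoechst and imaged; cell-cycle phase assigned by DNA content; G2 share scaled per plate, non-targeting siRNA 0%, GMNN siRNA 100%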. Direction: G2 robust z-score: higher = more G2 cells, more excess DNA replication. Hit rule: 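Active siRNAs have a G2 robust z of 5 or more median absolute deviations over the median, which in these data means about 38% or higher of GMNN control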.
This is a random part of about 59,000 deposited reagents. About 1,550 of all reagents (2.6%) count as active. 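G2 share is only a proxy for re-replication; each gene was hit by three separate siRNAs, and active genes were retested.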 Unmarked entries are inactive. The numbers tell different reagents against one gene apart. Not all columns of the deposit are shown. Reagent sequences are not shown. Not given: the amount of reagent.

{"gene": "NAPEPLD", "reagent": 1, "G2 robust z-score": -0.317}
{"gene": "NAPEPLD", "reagent": 2, "G2 robust z-score": 0.506}
{"gene": "NAPEPLD", "reagent": 3, "G2 robust z-score": -0.11}
{"gene": "RPL10L", "reagent": 1, "G2 robust z-score": 4.83}
{"gene": "RPL10L", "reagent": 2, "G2 robust z-score": 1.26}
{"gene": "RPL10L", "reagent": 3, "G2 robust z-score": -0.494}
{"gene": "HSPA2", "reagent": 1, "G2 robust z-score": 1.92}
{"gene": "HSPA2", "reagent": 2, "G2 robust z-score": 0.197}
{"gene": "HSPA2", "reagent": 3, "G2 robust z-score": -0.37}
{"gene": "DHX33", "reagent": 1, "G2 robust z-score": -0.0632}
{"gene": "DHX33", "reagent": 2, "G2 robust z-score": 3.11}
{"gene": "DHX33", "reagent": 3, "G2 robust z-score": -0.666}
{"gene": "NDUFV1", "reagent": 1, "G2 robust z-score": -1.71}
{"gene": "NDUFV1", "reagent": 2, "G2 robust z-score": -0.294}
{"gene": "NDUFV1", "reagent": 3, "G2 robust z-score": -0.612}
{"gene": "BTAF1", "reagent": 1, "G2 robust z-score": 0.283}
{"gene": "BTAF1", "reagent": 2, "G2 robust z-score": 1.06}
{"gene": "BTAF1", "reagent": 3, "G2 robust z-score": -0.38}
{"gene": "A3GALT2", "reagent": 1, "G2 robust z-score": -0.789}
{"gene": "A3GALT2", "reagent": 2, "G2 robust z-score": -0.523}
{"gene": "A3GALT2", "reagent": 3, "G2 robust z-score": -0.178}
{"gene": "ZFC3H1", "reagent": 1, "G2 robust z-score": -0.681}
{"gene": "ZFC3H1", "reagent": 2, "G2 robust z-score": -0.275}
{"gene": "ZFC3H1", "reagent": 3, "G2 robust z-score": -0.133}

Reformatted: results already given.
gene	reagent	G2 robust z-score
HSPA2	2	0.197
HSPA2	3	-0.37
